Data from paper PMC10938166.

How the values were obtained:
[1] = target: hBSGΔ-FLAG (human basigin lacking the first immunoglobulin-like domain, N152Q/N186Q) (human); experiment: co-IP; purified hXKR8–hBSGΔ-FLAG–Fab complex in lipid nanodiscs (29 μg of protein) loaded onto anti-FLAG M2 magnetic beads, 4 °C, 2 h; wash buffer 20 mM Hepes pH 7.0, 100 mM NaCl, 1 mM EGTA; eluted with 3× FLAG peptide; SDS-PAGE, Coomassie Brilliant Blue staining; both purified
[2] = target: hBSGΔ-FLAG (human basigin lacking the first immunoglobulin-like domain, N152Q/N186Q) (human); experiment: cryo-EM structure; hXKR8–hBSGΔ-FLAG–Fab complex in lipid nanodiscs (soybean polar lipids, MSP1E3D1), 0.075% fluorinated Fos-choline 8; single-particle analysis, overall resolution 3.66 Å; both purified

binding [1]: binds
binding [2]: binds
B1: human XK-related 8 (hXKR8) (protein, UniProt Q9H6D3 1-395)
chain: MPWSSRGALLRDLVLGVLGTAAFLLDLGTDLWAAVQYALGGRYLWAALVLALLGLASVALQLFSWLWLRADPAGLHGSQPPRRCLALLHLLQLGYLYRCVQELRQGLLVWQQEEPSEFDLAYADFLALDISMLRLFETFLETAPQLTLVLAIMLQSGRAEYYQWVGICTSFLGISWALLDYHRALRTCLPSKPLLGLGSSVIYFLWNLLLLWPRVLAVALFSALFPSYVALHFLGLWLVLLLWVWLQGTDFMPDPSSEWLYRVTVATILYFSWFNVAEGRTRGRAIIHFAFLLSDSILLVATWVTHSSWLPSGIPLQLWLPVGCGCFFLGLALRLVYYHWLHPSCCWKPDPDQVDGARSLLSPEGYQLPQNRRMTHLAQKFFPKAKDEAASPVKG

These are yes or no findings as the source states them, for the method shown. Binding can be weak; no strength is given. For some assays here: In cells and extracts the contact can be indirect.
